Measured values reported in US20100028358A1, “Compositions and Methods for Controlling Tissue Factor Signaling Specificity” (priority 2005, published 2010).
Results are given in words; binding and its absence hold for the method and conditions named. For some assays here: In cells and extracts the contact can be indirect. Some results given as binding are weak or reduced against the parent protein; the word gives no strength.

Sequences of proteins named here, by UniProt entry; tags and fusion partners are left off. Residues count along the entry.
UniProt P13726, residues 33-295: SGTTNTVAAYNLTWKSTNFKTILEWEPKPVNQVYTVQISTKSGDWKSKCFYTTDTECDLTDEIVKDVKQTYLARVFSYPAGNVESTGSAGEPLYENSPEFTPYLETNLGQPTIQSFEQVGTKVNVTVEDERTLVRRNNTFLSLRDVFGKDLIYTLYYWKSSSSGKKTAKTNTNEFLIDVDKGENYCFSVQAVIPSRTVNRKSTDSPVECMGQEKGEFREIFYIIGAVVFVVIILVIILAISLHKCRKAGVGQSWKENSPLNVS
UniProt P07237, residues 18-508: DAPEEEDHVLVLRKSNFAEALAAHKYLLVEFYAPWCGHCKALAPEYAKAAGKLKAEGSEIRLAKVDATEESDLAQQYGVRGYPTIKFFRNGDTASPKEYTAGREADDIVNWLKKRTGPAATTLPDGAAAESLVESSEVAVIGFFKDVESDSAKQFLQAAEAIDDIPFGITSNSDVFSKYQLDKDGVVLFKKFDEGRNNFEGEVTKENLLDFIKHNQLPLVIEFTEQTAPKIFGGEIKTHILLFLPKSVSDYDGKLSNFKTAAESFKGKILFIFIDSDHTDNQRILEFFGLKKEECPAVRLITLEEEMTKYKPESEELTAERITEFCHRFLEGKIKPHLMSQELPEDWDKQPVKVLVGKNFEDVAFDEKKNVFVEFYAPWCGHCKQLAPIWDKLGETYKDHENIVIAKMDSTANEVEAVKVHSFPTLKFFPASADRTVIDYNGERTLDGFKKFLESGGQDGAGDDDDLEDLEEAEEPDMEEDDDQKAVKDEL

How the values were obtained:
[1] = target: tissue factor (TF), cell surface-expressed wild-type (human) (UniProt P13726); test: co-immunoprecipitation from NHS surface-biotinylated HaCaT cells
[2] = target: tissue factor (TF), cell surface-expressed wild-type (human) (UniProt P13726); test: biotin switch method, PDI immunoprecipitation from high Ca^2+ HaCaT cells
[3] = target: tissue factor (TF), cell surface-expressed wild-type (human) (UniProt P13726); test: MPB thiol labelling of the cell surface and co-precipitation with TF from high Ca^2+ HaCaT cells
[4] = target: tissue factor (TF), cell surface-expressed wild-type (human) (UniProt P13726); test: summary of the examples
[5] = target: tissue factor (TF), cell surface-expressed wild-type (human) (UniProt P13726); test: co-immunoprecipitation of NHS surface-biotinylated PDI with TF, Western blotting

Measured: binding

protein disulfide isomerase (PDI), cell surface (from UniProt P07237 18-508) (enzyme)
binds: all assays above
